# Assay: Phantom studies: relative X-ray attenuation in well-plates under a 17-cm water column
# Conditions: 110 kV, equimolar concentrations
structure (smiles),measurement,value
"O=C([O-])CN1CCN(CC(=O)[O-])CCN(CC(=O)NCCNC(=O)c2c(I)c(C(=O)NCCNC(=O)CN3CCN(CC(=O)[O-])CCN(CC(=O)[O-])CCN(CC(=O)[O-])CC3)c(I)c(C(=O)NCCNC(=O)CN3CCN(CC(=O)[O-])CCN(CC(=O)[O-])CCN(CC(=O)[O-])CC3)c2I)CCN(CC(=O)[O-])CC1.[Gd+3].[Gd+3].[Gd+3] [Example 3F, 2,4,6-Triiodotrimesic acid-N,N,N-tris-(3-aza-4-oxopentane-1,5-diyl-{10-[1,4,7-tris-(carboxylatomethyl)-1,4,7,10-tetrazacyclododecanyl, Gdcomplex]})amide]",x-ray absorption relative to gadobutrol,3.77 ×
same,x-ray absorption relative to iopromide,3.08 ×

# Reference: patent publication US7208140B2, “Trimeric macrocyclic substituted benzene derivatives” (Schering Aktiengesellschaft, priority 2003, dated 2007)
